According to publication PMC7819943, “Rice protein-binding microarrays: a tool to detect cis-acting elements near promoter regions in rice”:
The list shows a part of the results.

molecular target: T1, OsSMF1 (Oryza sativa, UniProt Q6ZLB0 1-436); assay: protein-binding microarray (RPBM); PBS, 2% BSA, 51.3 ng/ul salmon testes DNA, 50 uM zinc acetate, 200 nM TF, 25 C, 1 h; high values mean tight binding; conditions: protein: recombinant; tags: N-terminal polyhistidine and DsRed monomer fusion (pET32a); chain copies: 2; label: CyDye5-dUTP incorporated in the synthesized complementary strand; 3' TTTTT single-stranded linker to array surface; dsDNA, one strand shown
T1 sequence: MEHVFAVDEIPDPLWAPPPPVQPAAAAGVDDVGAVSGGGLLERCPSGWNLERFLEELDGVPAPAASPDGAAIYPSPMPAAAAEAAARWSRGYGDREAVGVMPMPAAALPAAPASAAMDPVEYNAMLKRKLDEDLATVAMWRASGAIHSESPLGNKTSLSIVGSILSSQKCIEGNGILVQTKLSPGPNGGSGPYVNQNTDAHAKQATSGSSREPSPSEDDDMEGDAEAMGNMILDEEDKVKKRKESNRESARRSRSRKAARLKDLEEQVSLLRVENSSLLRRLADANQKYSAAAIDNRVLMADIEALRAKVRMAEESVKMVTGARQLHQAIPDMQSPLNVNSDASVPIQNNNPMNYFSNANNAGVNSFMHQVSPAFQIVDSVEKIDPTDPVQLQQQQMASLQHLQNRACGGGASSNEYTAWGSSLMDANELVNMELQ
Summary of the method: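 The binding signal is fluorescence intensity per feature, in arbitrary units, read on an Axon 4000B scanner. Polyhistidine- and DsRed-tagged transcription factors (N-terminal fusions) from E. coli BL21-CodonPlus were purified on Ni–NTA and applied at 200 nM for 1 h at 25 °C to a double-stranded, BSA-blocked custom Agilent array in buffer with 50 µM zinc acetate.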

Sequence	binding signal
AATGCAATCTGGATTGTCACGCATATGCCACGTAGGATAACGGAGTCACCTAGTGCAG	22500 fluorescence intensity (a.u.)
GAATATATCACATATGGTCATAGATTTGTTGTTTATGGGACGGAGTCACCTAGTGCAG	3560 fluorescence intensity (a.u.)
CGAAGACGCCGCGTGGCCATGATCCTAGCATTTGGGATGGCGGAGTCACCTAGTGCAG	4580 fluorescence intensity (a.u.)
AGCTTGTGTACCCAGGAGATCTACATACTTCGCTACGTCACGGAGTCACCTAGTGCAG	4570 fluorescence intensity (a.u.)
TGAGCTCATGCTCGTTGGCCCATGTCACCGGTCAGCCTCACGGAGTCACCTAGTGCAG	3690 fluorescence intensity (a.u.)
GCCTCACACAGTCACACCTATTCAGAACTTCATGTCAGTACGGAGTCACCTAGTGCAG	4420 fluorescence intensity (a.u.)
AAAATAGTGTCCAACCCAATGACGTATTATAGAATAATTGCGGAGTCACCTAGTGCAG	4490 fluorescence intensity (a.u.)
ACGCGTGGGTGCCCGCGTCATCTTCTCCGGCTCGCCGTTGCGGAGTCACCTAGTGCAG	8040 fluorescence intensity (a.u.)
CCAGCTGTGTTGGTCCAGCTGGACGTGGACAGTTGGGCAACGGAGTCACCTAGTGCAG	3140 fluorescence intensity (a.u.)
CTCGTCTCTCCTCACTCCACTCGACTCCTCACTCATCCTACGGAGTCACCTAGTGCAG	3380 fluorescence intensity (a.u.)
GCGTGTTGCGCACGGCGCACGCCGCCGCAAACGTCGCCGCCGGAGTCACCTAGTGCAG	4620 fluorescence intensity (a.u.)
TGTCTATTTCATTAAACCTCGTCCTTTCTTTCATTCCGGACGGAGTCACCTAGTGCAG	38200 fluorescence intensity (a.u.)
AAGGTATTGTCCCCTAGGGGATCTCTTGGGCGACGTGGCGCGGAGTCACCTAGTGCAG	6960 fluorescence intensity (a.u.)
GTTGACTTGCTGAGTCAACAAGCGGGTCTCACATGTCAGCCGGAGTCACCTAGTGCAG	14600 fluorescence intensity (a.u.)
TTTCTCTTGCGCGTTGTGCTGCTGCTGCTGACGATACGGGCGGAGTCACCTAGTGCAG	4720 fluorescence intensity (a.u.)
GAGGCTGACGAGGCTCATGTAGGCCACCTCTAGCACCAGCCGGAGTCACCTAGTGCAG	5350 fluorescence intensity (a.u.)
TTGTGGGACGTGGGTCGGGGATGGATGGATAGGCAAGGCGCGGAGTCACCTAGTGCAG	3190 fluorescence intensity (a.u.)
CTGTTGTGTTGTGTTGTAATATGATTATGTGGGTGCTTATCGGAGTCACCTAGTGCAG	3290 fluorescence intensity (a.u.)
AAACACGATCCGCGCTGACCGCCGCGCCGCCAACCGGCAACGGAGTCACCTAGTGCAG	3300 fluorescence intensity (a.u.)
AAATATAATAAATTTAATGTTAACATATTTTACACGTAAGCGGAGTCACCTAGTGCAG	9740 fluorescence intensity (a.u.)
TTCCTTTTGGCAAAATTGGTTCTATAGCTGAGCCGGCCAACGGAGTCACCTAGTGCAG	3230 fluorescence intensity (a.u.)

Part of the list above, bar-delimited.
Sequence | binding signal
GCCTCACACAGTCACACCTATTCAGAACTTCATGTCAGTACGGAGTCACCTAGTGCAG | 4420 fluorescence intensity (a.u.)
CTGTTGTGTTGTGTTGTAATATGATTATGTGGGTGCTTATCGGAGTCACCTAGTGCAG | 3290 fluorescence intensity (a.u.)
AAACACGATCCGCGCTGACCGCCGCGCCGCCAACCGGCAACGGAGTCACCTAGTGCAG | 3300 fluorescence intensity (a.u.)

Next part

Sequence	binding signal
AGTAATGGCATCAGCAATGTATGGGTTACAACCAGGCATTCGGAGTCACCTAGTGCAG	31200 fluorescence intensity (a.u.)
GAATTGGGGAGGGAGATTAATAATGGATCTTCGCTTTCTGCGGAGTCACCTAGTGCAG	3410 fluorescence intensity (a.u.)
GTCAAACGTTAGACACGAATTTCCACGATTGCACTTATTTCGGAGTCACCTAGTGCAG	3950 fluorescence intensity (a.u.)
TGCCGCCGCCGCCACCTCCGCCGCTGTCCGCCGCCGGCGCCGGAGTCACCTAGTGCAG	4060 fluorescence intensity (a.u.)
GCGGATCGAACGGTCAGAACGACCCAACCCCACACTCAAGCGGAGTCACCTAGTGCAG	3750 fluorescence intensity (a.u.)
CATGTGTGGTGAGCATATTTGTTTGTACTGTTGTATTTTACGGAGTCACCTAGTGCAG	3550 fluorescence intensity (a.u.)
TGTTGGACCACGTGCGCGCGAGCCCGATTCCCCGCGGTAGCGGAGTCACCTAGTGCAG	5180 fluorescence intensity (a.u.)
TGTTCATAAAAGTAAATGTGCGTGCGTGATTGTATTGTATCGGAGTCACCTAGTGCAG	12500 fluorescence intensity (a.u.)
TCCCATCTAGTATCCTACGTGGCGCTGATGTGGCATGCCACGGAGTCACCTAGTGCAG	20500 fluorescence intensity (a.u.)
GAAATTATAACATTGTAATTTACTATGAGTTACAAAGTAACGGAGTCACCTAGTGCAG	22800 fluorescence intensity (a.u.)
TATATGAACCAAACTCTGATCGATGAGTCAGCAACTTAGGCGGAGTCACCTAGTGCAG	7200 fluorescence intensity (a.u.)
CAGCTCAAACCATGGCGCCGCCATGCCCACGGCGACGACCCGGAGTCACCTAGTGCAG	3190 fluorescence intensity (a.u.)
CTCACAGCTTCGCGGTTTCCACGCACTTGAAAACTCACGTCGGAGTCACCTAGTGCAG	3270 fluorescence intensity (a.u.)
TATTTCCCATACAGTCAGTATCCACTCTATGTTCCACCACCGGAGTCACCTAGTGCAG	4900 fluorescence intensity (a.u.)
TGTCCGTAGCCGACGCGCGCCGCGTCGGCTGACATGCGGGCGGAGTCACCTAGTGCAG	6270 fluorescence intensity (a.u.)
ATCTTGCGAAGACGTACGTGCAGAATGCATCATCCATGATCGGAGTCACCTAGTGCAG	3240 fluorescence intensity (a.u.)
CCGTCCCGCCACGTGGCGCAAAAGCGTGTTCACGGGCCCCCGGAGTCACCTAGTGCAG	13300 fluorescence intensity (a.u.)
GTACCAAATGTAATAATTAACATATTTTGTCAATCTTATACGGAGTCACCTAGTGCAG	3710 fluorescence intensity (a.u.)
TGGCTAGTGTGTCCATTTGACGCTGGTAAAGTCAATTCGTCGGAGTCACCTAGTGCAG	3480 fluorescence intensity (a.u.)
GGCTATGTTACCCAGATACGGCTGAAAAGCCACGTATCCGCGGAGTCACCTAGTGCAG	6270 fluorescence intensity (a.u.)
GGTCGATCCGTAGTAGGCGCTTGGCCGGCCATGACGCACGCGGAGTCACCTAGTGCAG	4540 fluorescence intensity (a.u.)

Sequence	binding signal
ATCTTAGCGTGGATGCGTGATTAACACTGAGGATGTCGGACGGAGTCACCTAGTGCAG	3410 fluorescence intensity (a.u.)
GGAGGGGCAGCTTGGTCATTCCACGTGGGAAGACTCGCCCCGGAGTCACCTAGTGCAG	9300 fluorescence intensity (a.u.)
TATAGAGAGAGGGACCTGAGATGTTGCTTGTGAGTTTCAGCGGAGTCACCTAGTGCAG	3380 fluorescence intensity (a.u.)
CTACCACCTGACACGCGTCCACTCTTATACTAACTAGTTTCGGAGTCACCTAGTGCAG	6370 fluorescence intensity (a.u.)
AGGAATTTCCGTCATCCTAGCGGTGTTCGGTGAGAACTTGCGGAGTCACCTAGTGCAG	5610 fluorescence intensity (a.u.)
CTCGATCCGCCTCGTACGCCAGCTCGCTCGCTCGCTCCCCCGGAGTCACCTAGTGCAG	3400 fluorescence intensity (a.u.)
ATCCACCACGCTCCCCTCCCGCGTGTCACCACGCCATTACCGGAGTCACCTAGTGCAG	3310 fluorescence intensity (a.u.)
AATGTGTGTCCGTATATCCGATGTGACACACCAAAACTTTCGGAGTCACCTAGTGCAG	5190 fluorescence intensity (a.u.)
CCAGCCCATACTCACGCTCCCGGCCGGCCCATCCATGGCCCGGAGTCACCTAGTGCAG	3290 fluorescence intensity (a.u.)
ATCTGCCCAAGCTCAGCTAAACATCAGCATAGGCTCCTCTCGGAGTCACCTAGTGCAG	3990 fluorescence intensity (a.u.)
TACCCCATAAACTTGTATACTCATTGGCATTGCAATTAATCGGAGTCACCTAGTGCAG	5870 fluorescence intensity (a.u.)
GCCTTACACAATGACGAAGCAGATCACTGAAAGGTCTATGCGGAGTCACCTAGTGCAG	3650 fluorescence intensity (a.u.)
CGCACGGTGCAGAGCTGACACGTAGATAGTCGTCGTTGTTCGGAGTCACCTAGTGCAG	4360 fluorescence intensity (a.u.)
CTATACTCCAGCTTGCAAACATATATGGAATCATGGATTTCGGAGTCACCTAGTGCAG	3300 fluorescence intensity (a.u.)
TTATCCACTGTCTTATTCTGTCCACGTCATTAAACAAAGCCGGAGTCACCTAGTGCAG	10400 fluorescence intensity (a.u.)
CCGCCGCCACGGAGGCTTGGCGCGCTCGCCAGCGCCGGCCCGGAGTCACCTAGTGCAG	3570 fluorescence intensity (a.u.)
TCGTTCATAGCGCACCCCTACCGCCTCGTCACGCTGCCCCCGGAGTCACCTAGTGCAG	7120 fluorescence intensity (a.u.)
ATTGTATACCTCTGCCTCTTAATACTATTTCCCAAGGACCCGGAGTCACCTAGTGCAG	3540 fluorescence intensity (a.u.)
TCAAGGGTGACTCGGATCAGAGCTGGGACCCACTTTCAGTCGGAGTCACCTAGTGCAG	6330 fluorescence intensity (a.u.)
CCGTGTGCGTCACCGACATATGGGTCCCTTCTAGCGGTGCCGGAGTCACCTAGTGCAG	4600 fluorescence intensity (a.u.)
GCGCTGCCACGAGTGCCCGCGTCATCCCGTCCCCTCGCACCGGAGTCACCTAGTGCAG	6120 fluorescence intensity (a.u.)

Sequence	binding signal
ATTTAGCTCTGATGTGCATGCACTCTAGAAGGCCCCACAGCGGAGTCACCTAGTGCAG	3360 fluorescence intensity (a.u.)
GTTCCAACAAAAGACTAATTGTCTAGTCATACATTAAAGTCGGAGTCACCTAGTGCAG	3920 fluorescence intensity (a.u.)
TGTGCATCGTGTCTCACTCGTTAAAATCCACGCGTATTAACGGAGTCACCTAGTGCAG	3750 fluorescence intensity (a.u.)
GGTTGACCGTAGTCAACTCGCCACGTTGACTAGAACCGAGCGGAGTCACCTAGTGCAG	3900 fluorescence intensity (a.u.)
GTTTAAATATAATGATTGTCAGTGGATGATAATGTGTCAGCGGAGTCACCTAGTGCAG	3480 fluorescence intensity (a.u.)
TGTTCATACTCCTAACAGTTGTACGTGTACCATTATCTGGCGGAGTCACCTAGTGCAG	3180 fluorescence intensity (a.u.)
CACTCTCTTTTGAGCACAGAAACAAATGCAAATGCTGTTGCGGAGTCACCTAGTGCAG	24000 fluorescence intensity (a.u.)
ACCAAACCAAACCAAACCAAACCAAACCGCACATGACACACGGAGTCACCTAGTGCAG	3320 fluorescence intensity (a.u.)
AAGAGGATTCAGCAATGCTTCTCCTCAAGGCATGATGATCCGGAGTCACCTAGTGCAG	4070 fluorescence intensity (a.u.)
AGTCATTTGGTACGCTGTCATGCCATGCCAGTACAACACGCGGAGTCACCTAGTGCAG	4950 fluorescence intensity (a.u.)
TGGTTCATGGCCACACCACACTTTTGACTGCCACAGTGTGCGGAGTCACCTAGTGCAG	3140 fluorescence intensity (a.u.)
TAGGATTGATCTCATCTCCCCATAGCGACGCGTGTGCGTTCGGAGTCACCTAGTGCAG	3600 fluorescence intensity (a.u.)
AGAGAGGGTAAGTAGTCACTTACACATGGAGCCCACGCTACGGAGTCACCTAGTGCAG	3520 fluorescence intensity (a.u.)
ACGAGATGCGCCGCCTGCCTTCCCCTCCACGCCAACGCCACGGAGTCACCTAGTGCAG	3190 fluorescence intensity (a.u.)
TCTATATTCTACTCAATGCTTGGTTCTAAATTGGCCTCAACGGAGTCACCTAGTGCAG	24700 fluorescence intensity (a.u.)
GCGTCGCATATTTCTCCAAACCCACGCAGATCTCCGCTTTCGGAGTCACCTAGTGCAG	3150 fluorescence intensity (a.u.)
ATCGGTTTCTTTCCACGCTGACGCAAATCAATCGCCTCCTCGGAGTCACCTAGTGCAG	5090 fluorescence intensity (a.u.)
GGGAGAATATTGAGGGGAACTGTGGAGAAGTGGAGTTTTGCGGAGTCACCTAGTGCAG	3160 fluorescence intensity (a.u.)
GGGCCCACATGCCAGCTCCTCCATCTCTATTCCACCACGACGGAGTCACCTAGTGCAG	3770 fluorescence intensity (a.u.)
CACCACTTCAACGTCGTCCATGGCTGTGTGCGCGGCCACCCGGAGTCACCTAGTGCAG	26400 fluorescence intensity (a.u.)
CTCCTATCCAGCGCCATCCCCACGTGGGCCCCACGTGTCGCGGAGTCACCTAGTGCAG	15800 fluorescence intensity (a.u.)

Single values from the list:
binding signal, AGTAATGGCATCAGCAATGTATGGGTTACAACCAGGCATTCGGAGTCACCTAGTGCAG is entered as 31200 fluorescence intensity (a.u.)
binding signal, CTCCTATCCAGCGCCATCCCCACGTGGGCCCCACGTGTCGCGGAGTCACCTAGTGCAG is entered as 15800 fluorescence intensity (a.u.)
